# Laboratory results as given in publication PMC7819943, “Rice protein-binding microarrays: a tool to detect cis-acting elements near promoter regions in rice”.
# Sequences of proteins named here, by UniProt entry; tags and fusion partners are left off.
# UniProt Q0JBA9, entry or part of it: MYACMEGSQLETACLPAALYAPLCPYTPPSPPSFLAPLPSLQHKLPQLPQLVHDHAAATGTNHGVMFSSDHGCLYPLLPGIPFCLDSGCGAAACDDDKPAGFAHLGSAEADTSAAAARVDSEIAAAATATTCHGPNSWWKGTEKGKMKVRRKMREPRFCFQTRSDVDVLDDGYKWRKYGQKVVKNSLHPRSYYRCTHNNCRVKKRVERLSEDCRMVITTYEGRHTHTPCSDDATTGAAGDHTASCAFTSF
# This is one part of the list.
# Target: OsWRKY34 (Oryza sativa, UniProt Q0JBA9 1-250)
# Assay: protein-binding microarray (RPBM); PBS, 2% BSA, 51.3 ng/ul salmon testes DNA, 50 uM zinc acetate, 200 nM TF, 25 C, 1 h; high values mean tight binding
# Details: protein: recombinant; tags: N-terminal polyhistidine and DsRed monomer fusion (pET32a); label: CyDye5-dUTP incorporated in the synthesized complementary strand; 3' TTTTT single-stranded linker to array surface; dsDNA, one strand shown
# Summary of the method: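 The binding signal for each feature is its fluorescence intensity in arbitrary units. An Axon 4000B scanner was used to read a custom Agilent array that had been made double-stranded with Cy5-dUTP primer extension, blocked with 2% BSA, incubated at 25 °C for 1 h with 200 nM protein in PBS, 2% BSA, salmon testes DNA and 50 µM zinc acetate, and washed. The protein was an N-terminal polyhistidine–DsRed transcription factor fusion from E. coli BL21-CodonPlus, purified on Ni–NTA.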
row,Sequence,binding signal
1,ACATGTTTGACCATTCGTCTTATTCAAAAAATTTACGTAACGGAGTCACCTAGTGCAG,8590 fluorescence intensity (a.u.)
2,GAGGAGGAGGTGGAGCTACTGGTGGTGGTGGTGGTGGTGGCGGAGTCACCTAGTGCAG,16200 fluorescence intensity (a.u.)
3,AAACTTCCAACTTTTTCTATCACATCAACCTGTGATACACCGGAGTCACCTAGTGCAG,8520 fluorescence intensity (a.u.)
4,CATTCAGGTTCGTTGTTTTTAGATATGTTTCTCTTTTAAACGGAGTCACCTAGTGCAG,10700 fluorescence intensity (a.u.)
5,AGGGTTTGGTTGATTTTCGGATTTGGTTTGGTTTTGACGACGGAGTCACCTAGTGCAG,13300 fluorescence intensity (a.u.)
6,GCAAGTATCCAACTCATCTCTTTCCTTATCTCAGTCAATCCGGAGTCACCTAGTGCAG,9220 fluorescence intensity (a.u.)
7,GGTTGGTGGTGGAGGTGGTCAAGGCGGTGGTTTTGGAGCCCGGAGTCACCTAGTGCAG,16400 fluorescence intensity (a.u.)
8,CCCTCCTTCCACCACCGAAGCACGACCTCCACCTCGCTCTCGGAGTCACCTAGTGCAG,8810 fluorescence intensity (a.u.)
9,GCCGCTCTCTGCCCATTCTCTTCTCCACGGCAAACCACCACGGAGTCACCTAGTGCAG,9340 fluorescence intensity (a.u.)
10,GGGATGTGGCGGGCGGTGGGTCCAGGGAGGAGGAGGAGAACGGAGTCACCTAGTGCAG,15000 fluorescence intensity (a.u.)
11,AAAAAACCCATGCTACTTGTCACGTTGCCGTCTCATCTCACGGAGTCACCTAGTGCAG,9050 fluorescence intensity (a.u.)
12,GCCACATGATTTTTCATTCTAGATGGTTGGGAATGGCTTACGGAGTCACCTAGTGCAG,8560 fluorescence intensity (a.u.)
13,TATTCGTTAGTATATATGACGCCTCTATTGATTTTATTTTCGGAGTCACCTAGTGCAG,8240 fluorescence intensity (a.u.)
14,GATAACTCATTTTATTTCATCCTTGTTTCATCTTACTTCCCGGAGTCACCTAGTGCAG,13800 fluorescence intensity (a.u.)
15,AACACAACCTAATTCTCTCCACGCTTTCCTGTGCTCTTTCCGGAGTCACCTAGTGCAG,10900 fluorescence intensity (a.u.)
16,GTTCCTGCACCGCCCGCGCCCTAGCGTTTGCTTGCTCATCCGGAGTCACCTAGTGCAG,8670 fluorescence intensity (a.u.)
17,GGTTTCCCATGGTCATTTACTGGCGTCGCGTCTTTTGGGGCGGAGTCACCTAGTGCAG,8210 fluorescence intensity (a.u.)
18,ACTATTTTTTATCTTTTGTCTAACTTACATATATGCCCCACGGAGTCACCTAGTGCAG,8470 fluorescence intensity (a.u.)
19,CTAAAATACAAGACCCATTTCACGTTTGCATAGCGCTACACGGAGTCACCTAGTGCAG,8350 fluorescence intensity (a.u.)
20,AGTGGTGCATTCTGTTTTTTTATATATTATTATTTGTTTACGGAGTCACCTAGTGCAG,9050 fluorescence intensity (a.u.)
21,CTCTCTCGCGACTCCTCGCCACCGCCTTCGGACCACGAGACGGAGTCACCTAGTGCAG,8220 fluorescence intensity (a.u.)

# Some of the entries so far, with bars between the fields.
row | Sequence | binding signal
16 | GTTCCTGCACCGCCCGCGCCCTAGCGTTTGCTTGCTCATCCGGAGTCACCTAGTGCAG | 8670 fluorescence intensity (a.u.)
17 | GGTTTCCCATGGTCATTTACTGGCGTCGCGTCTTTTGGGGCGGAGTCACCTAGTGCAG | 8210 fluorescence intensity (a.u.)
18 | ACTATTTTTTATCTTTTGTCTAACTTACATATATGCCCCACGGAGTCACCTAGTGCAG | 8470 fluorescence intensity (a.u.)

# Following part.

row,Sequence,binding signal
1,TTATTTGTTTAATTAGGACGTTCCACGTGTTTGACTATCACGGAGTCACCTAGTGCAG,8980 fluorescence intensity (a.u.)
2,TCATTCCATAAGCTTGGACTAATTCGCGAGACGAATCTTTCGGAGTCACCTAGTGCAG,8240 fluorescence intensity (a.u.)
3,GTATATTATGGTTTTGACTTATCGATATTGGTTTCTTGACCGGAGTCACCTAGTGCAG,9500 fluorescence intensity (a.u.)
4,GTACTTAGAATTCTGCAGCTGCAGCTTTCATGAAACTAAACGGAGTCACCTAGTGCAG,8190 fluorescence intensity (a.u.)
5,CCATGCCTGTAATTTGTCATGCCAAAACGTTCAGAATATTCGGAGTCACCTAGTGCAG,9960 fluorescence intensity (a.u.)
6,GGTCTATTTCTGTAATTAATTTTTCCGAGAAAGTTCTTTTCGGAGTCACCTAGTGCAG,9870 fluorescence intensity (a.u.)
7,ACTGTTGATGTGATCCACGAGAGGAGTCAGTGAGCACAACCGGAGTCACCTAGTGCAG,8350 fluorescence intensity (a.u.)
8,AACTGTGTAGTTGGTTTTTTTCCACATTTAATATTTCATACGGAGTCACCTAGTGCAG,8210 fluorescence intensity (a.u.)
9,CTGAAGCCGACTCCACTCATCTACCTATATTAGTAACCCCCGGAGTCACCTAGTGCAG,8790 fluorescence intensity (a.u.)
10,ATGCTTGGGACCTTTATTTATTCACTACTACACTTTAAACCGGAGTCACCTAGTGCAG,9220 fluorescence intensity (a.u.)
11,ATATCGGTCTCTTCATTCTCCACCTCGATAGCCGCCGAGACGGAGTCACCTAGTGCAG,12800 fluorescence intensity (a.u.)
12,CCGCCATGTGAGCCTTCCATCACCGTTTCCGCTCCTCACCCGGAGTCACCTAGTGCAG,8860 fluorescence intensity (a.u.)
13,TGGTCGTCTTCCTCCTCGAGCCATTCCACAAAATTCGGCACGGAGTCACCTAGTGCAG,8120 fluorescence intensity (a.u.)
14,ACTACTGTATATTCCTATGCTCGTATATATACTACCCTGTCGGAGTCACCTAGTGCAG,10600 fluorescence intensity (a.u.)
15,ATATTCAGCTGATTGGGGCATTGGGTATTTGCAGTGAGCACGGAGTCACCTAGTGCAG,8770 fluorescence intensity (a.u.)
16,CACTGATTTTGCTATGTTTACTTTATGTATAGGTGTTTCTCGGAGTCACCTAGTGCAG,10800 fluorescence intensity (a.u.)
17,AGCCGCGTGTCGACTATGATCTTCTAACTGCACACTATACCGGAGTCACCTAGTGCAG,11700 fluorescence intensity (a.u.)
18,CTATTCTGGCACCTACAATTCCAAGCTTATCACGACGATGCGGAGTCACCTAGTGCAG,12100 fluorescence intensity (a.u.)
19,GCTTTTCGTCCCTATCTTGAATTCTCCTCTCTCTCAATCGCGGAGTCACCTAGTGCAG,8670 fluorescence intensity (a.u.)
20,CCCGCAGATGTGCTTCATCTCCTGCAGCTTCTTCACAATCCGGAGTCACCTAGTGCAG,9820 fluorescence intensity (a.u.)
21,ATTCCATTTCCATTCCCGCTTGATTTTCCCTCCCATTCTTCGGAGTCACCTAGTGCAG,8300 fluorescence intensity (a.u.)
